Test results taken from US12454510B2, “Isophthalamide compound and use thereof” (METISA BIOTECHNOLOGY CO., LTD, priority 2019, dated 2025).
Some of these results come from one statement about several compounds together.

Legend:
American dog ticks = experiment: Insecticidal test on American dog ticks, compound film in petri dish; type: in vivo; settings: treatment dose 1 μg/cm^2, first nymphs, after 24 h, 25° C.
cat fleas = experiment: Insecticidal test on cat fleas, compound film in petri dish; type: in vivo; settings: treatment dose 1 μg/cm^2, adult cat fleas, after 72 h, 25° C.

SMILES	mortality rate of the insects (American dog ticks) (American dog ticks)	mortality rate of the insects (cat fleas) (cat fleas)
N#CCN(C(=O)c1ccc(F)nc1)c1cccc(C(=O)Nc2c(Br)cc(C(F)(C(F)(F)F)C(F)(F)F)cc2Br)c1F [Compound 1]	over 90%	over 90%
N#CCCN(C(=O)c1ccc(F)nc1)c1cccc(C(=O)Nc2c(Br)cc(C(F)(C(F)(F)F)C(F)(F)F)cc2Br)c1F [Compound 2]	over 90%	over 90%
N#CCCCN(C(=O)c1ccc(F)nc1)c1cccc(C(=O)Nc2c(Br)cc(C(F)(C(F)(F)F)C(F)(F)F)cc2Br)c1F [Compound 3]	over 90%	over 90%
N#CCCCCN(C(=O)c1ccc(F)nc1)c1cccc(C(=O)Nc2c(Br)cc(C(F)(C(F)(F)F)C(F)(F)F)cc2Br)c1F [Compound 4]	over 90%	over 90%
N#CCN(C(=O)c1ccc(F)nc1)c1cccc(C(=O)Nc2c(Br)cc(C(F)(C(F)(F)F)C(F)(F)F)cc2I)c1F [Compound 5]	over 90%	over 90%
N#CCCN(C(=O)c1ccc(F)nc1)c1cccc(C(=O)Nc2c(Br)cc(C(F)(C(F)(F)F)C(F)(F)F)cc2I)c1F [Compound 6]	over 90%	over 90%
N#CCN(C(=O)c1ccc(F)nc1)c1cccc(C(=O)Nc2c(Br)cc(C(F)(C(F)(F)F)C(F)(F)F)cc2C(F)(F)F)c1F [Compound 9]	over 90%	over 90%
N#CCCN(C(=O)c1ccc(F)nc1)c1cccc(C(=O)Nc2c(Br)cc(C(F)(C(F)(F)F)C(F)(F)F)cc2C(F)(F)F)c1F [Compound 10]	over 90%	over 90%
N#CCCCN(C(=O)c1ccc(F)nc1)c1cccc(C(=O)Nc2c(Br)cc(C(F)(C(F)(F)F)C(F)(F)F)cc2C(F)(F)F)c1F [Compound 11]	over 90%	over 90%
N#CCCCCN(C(=O)c1ccc(F)nc1)c1cccc(C(=O)Nc2c(Br)cc(C(F)(C(F)(F)F)C(F)(F)F)cc2C(F)(F)F)c1F [Compound 12]	over 90%	over 90%
N#CCN(C(=O)c1ccc(F)nc1)c1cccc(C(=O)Nc2c(I)cc(C(F)(C(F)(F)F)C(F)(F)F)cc2C(F)(F)F)c1F [Compound 13]	over 90%	over 90%
N#CCCN(C(=O)c1ccc(F)nc1)c1cccc(C(=O)Nc2c(I)cc(C(F)(C(F)(F)F)C(F)(F)F)cc2C(F)(F)F)c1F [Compound 14]	over 90%	over 90%
N#CCCCN(C(=O)c1ccc(F)nc1)c1cccc(C(=O)Nc2c(I)cc(C(F)(C(F)(F)F)C(F)(F)F)cc2C(F)(F)F)c1F [Compound 15]	over 90%	over 90%
N#CCCCCN(C(=O)c1ccc(F)nc1)c1cccc(C(=O)Nc2c(I)cc(C(F)(C(F)(F)F)C(F)(F)F)cc2C(F)(F)F)c1F [Compound 16]	over 90%	over 90%
N#CCN(C(=O)c1ccc(C(F)(F)F)nc1)c1cccc(C(=O)Nc2c(Br)cc(C(F)(C(F)(F)F)C(F)(F)F)cc2Br)c1F [Compound 17]	over 90%	over 90%
N#CCN(C(=O)c1ccc(C(F)(F)F)nc1)c1cccc(C(=O)Nc2c(Br)cc(C(F)(C(F)(F)F)C(F)(F)F)cc2C(F)(F)F)c1F [Compound 25]	over 90%	over 90%
N#CCCN(C(=O)c1ccc(C(F)(F)F)nc1)c1cccc(C(=O)Nc2c(Br)cc(C(F)(C(F)(F)F)C(F)(F)F)cc2C(F)(F)F)c1F [Compound 26]	over 90%	over 90%
N#CCCCCN(C(=O)c1ccc(C(F)(F)F)nc1)c1cccc(C(=O)Nc2c(Br)cc(C(F)(C(F)(F)F)C(F)(F)F)cc2C(F)(F)F)c1F [Compound 28]	over 90%	over 90%
N#CCN(C(=O)c1ccc(C(F)(F)F)nc1)c1cccc(C(=O)Nc2c(I)cc(C(F)(C(F)(F)F)C(F)(F)F)cc2C(F)(F)F)c1F [Compound 29]	over 90%	over 90%
N#CCCCCN(C(=O)c1ccc(C(F)(F)F)nc1)c1cccc(C(=O)Nc2c(I)cc(C(F)(C(F)(F)F)C(F)(F)F)cc2C(F)(F)F)c1F [Compound 32]	over 90%	over 90%
